Laboratory results from the supplement of paper PMC3334620.
Whole data set: some 33,000 sequences, median “E-score (-0.5 to 0.5)” near -0.0014, cut for the highest 2% near 0.25. This is one part of the list.

Target: T1, Cad1 (UniProt P24813)
T1 sequence: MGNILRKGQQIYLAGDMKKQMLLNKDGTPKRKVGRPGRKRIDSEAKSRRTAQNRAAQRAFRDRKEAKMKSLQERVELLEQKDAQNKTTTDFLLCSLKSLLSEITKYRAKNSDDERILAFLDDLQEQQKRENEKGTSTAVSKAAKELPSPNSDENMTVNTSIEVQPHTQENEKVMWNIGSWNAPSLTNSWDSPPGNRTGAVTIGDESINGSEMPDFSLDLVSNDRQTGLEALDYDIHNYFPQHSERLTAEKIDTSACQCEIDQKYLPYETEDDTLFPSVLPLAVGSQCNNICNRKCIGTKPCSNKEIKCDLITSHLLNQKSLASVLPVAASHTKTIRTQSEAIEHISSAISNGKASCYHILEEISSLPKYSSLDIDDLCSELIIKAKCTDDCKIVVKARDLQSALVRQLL
Experiment: PBM E-score (8-mer binding enrichment) (E-score (-0.5 to 0.5)); higher = stronger / more preferred TF binding
Details: protein concentration: 100 nM; construct: GST-full length
Procedure, shortened: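 Masliner-normalised scans of fluorescent anti-GST signal were the basis for scoring. That signal came from GST-tagged yeast transcription factors applied at about 100-200 nM to double-stranded universal all-10-mer Agilent arrays on fresh or once-stripped slides. Each ungapped eight-base word, pooled with its reverse complement, received an E-score from the Universal PBM Analysis Suite.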

Row | Sequence | PBM E-score
1 | AATGCACA | 0.0747
2 | TAGTCGCA | -0.105
3 | ACTGTCCC | 0.00841
4 | AAGAGGGC | -0.144
5 | CGAATGCG | 0.246
6 | TAATAAAA | 0.226
7 | GCCAAAAC | 0.0771
8 | CACACCCG | 0.00724
9 | CTCAGCCA | -0.0335
10 | AACGCTAT | 0.0175
11 | ACGATCCT | -0.042
12 | CTGATTTC | 0.182
13 | CAGGGCCA | -0.169
14 | CCTGGAAC | -0.0243
15 | GGGTGCAC | -0.0791
16 | CCAGATCA | 0.0357
17 | GTCTCTCA | 0.0686
18 | ATAATACC | 0.215
19 | CGTCCGCC | -0.138
20 | GATGCGGA | -0.0714
21 | CCTGGCCA | -0.0345
22 | ATCGTCGA | 0.0771
23 | GCTAGAAC | -0.191
24 | AGGTCAAC | 0.00774
25 | GGTAATGA | 0.177

Row | Sequence | PBM E-score
26 | GGGCTGCA | -0.00508
27 | GGCTGTAC | -0.0764
28 | ATCGACCC | 0.0801
29 | AAGGATGG | -0.00477
30 | AAATGTTA | 0.114
31 | CAAATTAG | 0.0433
32 | TACTGTGA | 0.0722
33 | CTCGGGAC | -0.183
34 | ACTGGGCG | -0.153
35 | ACGGTGCA | -0.0033
36 | CAAGTGCC | -0.137
37 | ACGTTGTA | -0.0128
38 | GGGACACC | -0.0353
39 | AGCAATCC | -0.214
40 | ACCGATAG | 0.107
41 | TACAAAGA | 0.173
42 | CCGGACCG | -0.0657
43 | GCTTGAAC | 0.205
44 | CATCAGAG | -0.0712
45 | CCGGCGGA | 0.0466
46 | CCAGGAAC | -0.144
47 | ATGCGGGG | -0.222
48 | CTCATTTA | 0.0251
49 | CAATATTC | 0.0508
50 | AACGGATT | 0.317

Row | Sequence | PBM E-score
51 | AGGTCCAA | -0.189
52 | CAGGATAA | 0.247
53 | AGCCAGAA | -0.0332
54 | CCTCGGAG | -0.00151
55 | TCAAGGCA | -0.116
56 | GCAATGGC | -0.0363
57 | AGACAGTC | -0.119
58 | AACTGAAG | -0.00576
59 | CATAGAAA | 0.207
60 | GTTACGTA | 0.0792
61 | ATGCAGGA | -0.133
62 | GCTAGACC | -0.254
63 | CAGCGACG | -0.0364
64 | AGCGATCC | -0.107
65 | GCTCTGGA | 0.121
66 | AGCTCCCT | -0.271
67 | CAGGCATG | 0.0348
68 | AACGATGT | 0.171
69 | CCACACAG | -0.013
70 | GCCATATA | 0.0708
71 | ATACATAA | 0.12
72 | CGCAAGAC | 0.0828
73 | GCGGGATA | 0.0173
74 | AGGAGACG | -0.19
75 | ACGGAGGG | -0.168

Single entries from the list.
PBM E-score, AACGCTAT is entered as 0.0175
PBM E-score, CACACCCG is entered as 0.00724
PBM E-score, TCAAGGCA is entered as -0.116

The list continues.

Row | Sequence | PBM E-score
76 | CCTGTACA | 0.0214
77 | AGTTACCA | 0.122
78 | AGCATGGC | 0.0378
79 | CATGTGCA | -0.201
80 | CTTAAGTA | 0.075
81 | CCAATTCA | 0.24
82 | GGTAAATA | 0.107
83 | CGTGTTTC | -0.0153
84 | TCGCCGAA | 0.178
85 | TCCTCCGA | -0.131
86 | ATATCAGA | 0.132
87 | GTAGATAA | 0.251
88 | ATTCTCTA | 0.0352
89 | CCAGATGC | -0.0931
90 | GACGCCCC | -0.242
91 | ACACAAGT | 0.143
92 | TAAGTCCA | 0.0496
93 | CCAAAGAC | -0.059
94 | AAGCGTAG | -0.155
95 | AATGAGAT | 0.0953
96 | ATCGCCAG | 0.0235
97 | ATAACCAG | 0.15
98 | ACTTGGTG | -0.182
99 | ACAGCGTG | 0.112
100 | CCGGTGTC | -0.116

Row | Sequence | PBM E-score
101 | AGAGAACT | -0.0216
102 | CAAGTCGA | 0.0166
103 | AGCCCGAA | -0.0963
104 | CGCACGAA | 0.071
105 | GACTTCAA | -0.182
106 | ACTCGGAT | 0.0302
107 | GGTTTATA | -0.0482
108 | GATCGTCA | 0.0147
109 | AAGAGCAG | -0.174
110 | ACCACTGC | -0.154
111 | CCCCGCGG | -0.0748
112 | AGGACGCA | 0.101
113 | GGTCGCTA | -0.112
114 | AAGCTATG | -0.0137
115 | TCGCTCCA | -0.0792
116 | GCACAACA | -0.00434
117 | CAACCAGG | -0.13
118 | ATCTACGA | -0.142
119 | AAGTTATG | 0.138
120 | GAAGTATC | 0.0455
121 | ACTGGGAA | -0.0452
122 | ACGTGAGT | -0.0277
123 | TACGACCA | -0.0317
124 | AGAGCACA | -0.0271
125 | ACCTATAT | 0.249

From entry 60 to 63, as listed above:
Row | Sequence | PBM E-score
60 | GTTACGTA | 0.0792
61 | ATGCAGGA | -0.133
62 | GCTAGACC | -0.254
63 | CAGCGACG | -0.0364

Next part:

Row | Sequence | PBM E-score
126 | CCGGTAGA | -0.053
127 | AATCGCTC | -0.109
128 | GCACGAGA | 0.0423
129 | GCCGGTTA | -0.116
130 | AGCTCCAG | -0.181
131 | CCGCGATA | 0.11
132 | CATTTTAA | 0.0999
133 | CCATCGGC | 0.0261
134 | CTCTTCAC | -0.149
135 | AATAATCA | 0.218
136 | CATCATGG | -0.0638
137 | GCTTTTGA | -0.105
138 | CAATTAGA | 0.011
139 | CACGTGAC | -0.032
140 | GGTAGACA | -0.079
141 | ATCTCTTA | 0.035
142 | CTGCTGCC | -0.125
143 | AAGCAGCT | 0.0761
144 | AGAGTCCC | -0.234
145 | ATGTGCAC | 0.0488
146 | GTGGAGTA | -0.0448
147 | ACGTCTCG | -0.0676
148 | CATTAATA | 0.297
149 | AATAGAGA | -0.0158
150 | GCATAGAA | 0.0802

Row | Sequence | PBM E-score
151 | CATCCCCA | -0.0572
152 | CAAGCGAG | -0.0461
153 | ACGAACGG | 0.136
154 | CCGCGCGC | 0.144
155 | AACCGTGG | -0.234
156 | ACCCAGTA | -0.162
157 | AAACTCGG | 0.0981
158 | ACCTCCTG | -0.159
159 | ACCCTGGG | -0.118
160 | CATCAGCC | 0.00916
161 | GATCAAGA | 0.113
162 | CACCGAGG | -0.0536
163 | AATGAAAC | 0.197
164 | AACGCGGG | 0.0766
165 | CATGATCA | 0.171
166 | CTGCATTA | 0.014
167 | CCAGAGGC | -0.218
168 | TAAGAGTA | 0.108
169 | GGACTGGA | -0.0976
170 | AGGCTATA | -0.0926
171 | ACCTGGGG | -0.274
172 | CCGCTTAA | 0.147
173 | CGACGCCC | -0.109
174 | AGACGCCA | 0.0204
175 | GCGATCCA | -0.0123

Row | Sequence | PBM E-score
176 | TACCTTCA | 0.00633
177 | AGATATTA | 0.156
178 | CCAGCCAG | -0.207
179 | ACAGATTC | 0.0957
180 | GCACCGCA | -0.132
181 | AAAGAGTC | -0.157
182 | AAGTGTCT | 0.0844
183 | ATTTACAG | 0.0882
184 | GCCGCCCC | -0.0835
185 | ACCGCCAC | -0.0896
186 | ATCGGCAA | 0.0362
187 | ACTGCAGC | -0.156
188 | AAGGAATT | -0.066
189 | TGTCGACA | 0.0251
190 | AGGTGAAG | -0.053
191 | GTACATAA | 0.0232
192 | CGTTCTCA | -0.0845
193 | CCCTTAGA | -0.156
194 | TGACACAA | 0.126
195 | AATGTGTC | 0.0518
196 | CCATCCCA | -0.167
197 | ACTACGCA | -0.148
198 | CAGAGAGC | -0.174
199 | AACGGGCC | -0.149
200 | CAACCATC | -0.166

Row | Sequence | PBM E-score
201 | GGTTCGAC | 0.025
202 | ATCTCCCC | -0.373
203 | AGTGCATA | 0.0539
204 | ATGGGTCA | -0.0273
205 | ACAAATTA | 0.295
206 | CAACTGGA | 0.00883
207 | GATGCGCC | 0.0113
208 | AAGAATTG | 0.097
209 | GACACACC | 0.191
210 | TGAGCCAA | -0.098
211 | CTATGCAC | 0.0273
212 | ACGCTAGC | -0.0932
213 | ATGGGAGC | -0.0599
214 | TAGCCATA | -0.0739
215 | GCTAGAAA | 0.171
216 | CTCACACA | 0.0912
217 | GAATGTCA | 0.128
218 | CCAGACCA | 0.0202
219 | AGAATTAC | 0.166
